The source of these data is PMC10163288.

To fix the notation:
B1: il2ra_site1_1z92_sap_15_mot_a6da520ff4a02840130205282d0b8d49_0001_af2_000000028_0001_54_65_H_._e060d0886229932d1ce4e0f52036649a_0001_0001_0000200004_0000001_0_0 … (protein)
chain: SSSSSSSEVEEIVREIVEEFGLSEEDKEVLERDAERSLELGFSPKSIKMALERFAELLLSSSSSS
B2: il2ra_site2_3nfp_normal_mot_HHH_b1_05437_000000005_0001_40_57_H_._HHH_b2_08333_0001_0000200013_0000001_0 (protein)
chain: SSSSSEEEEEVRRLIERVEELIKEGNPEEARELLQRATHIAYEAGNSELFFLLAELLYLLASSSS
B3: il2ra_site2_3nfp_sap_20_mot_HHH_b2_06150_000000217_0001_39_53_H_._HHH_b2_03666_af2_0001_0000400026_0000001_0_0001 (protein)
chain: SKTVTIEVEDEEYARRIAERIFVIETETEGSSVTLHLRARNEEAARYVEIAAKLQFPNAEVEIES
B4: il2ra_site1_1z92_sap_27_mot_HHH_b2_02540_000000162_0001_1_16_H_._HHH_b1_06872_0001_0000700033_0000001_0_0001_af2pred_0001_af2pred_1 (protein)
chain: SLEELLEELLEELGVPPEDIKLVKRDLEQAKKLFPPERALRALLAALRVAGDPEAAKAVELVLRH
B5: il2ra_site1_3nfp_sap_14_mot_HHH_b1_02124_000000258_0001_1_20_H_._HHH_b2_08053_0001_0000200008_0000001_0_0001 (protein)
chain: SKILVRFLRDLEKVLGDPEEAVRKVVKDFEKVLNVPPEEAREALKRMLKSVDEELAEEVEELLEK
B6: il2ra_site2_3nfp_normal_mot_HHH_b1_05437_000000005_0001_40_57_H_._HHH_b2_03978_0001_0000200010_0000001_0 (protein)
chain: SSSSSEVEEEVRRILEEAEELYKQGDEEKVRRLLAEATHLAYENRDFEAFALVAEVLYRLASSSS
B7: il2ra_site1_1z92_sap_14_mot_3afbd42359c492d9a5ba12d7e5b15de5_0001_000000167_0001_17_33_H_._HHH_b2_02962_0001_0000500018_0000001_0_0001_af2pred_0001_af2pred_1_sw … (protein)
chain: SLERDAENALKYAPTPRALRKMLEEALKLTGDPEERRKFIEIVEKIARELGNEELEEAAEEALRK
B8: il2ra_site2_3nfp_sap_24_mot_HHH_b1_03777_000000157_0001_42_57_H_._HHH_b1_00199_0001_0000100005_0000001_0_0001 (protein)
chain: SSSSDEVEELLKEIEELLKEGDLYEVAQLLVEATELALELGDEELAREILRLFKLLQERSESSSS
B9: il2ra_site2_2erj_normal_mot_HHH_b1_05907_000000149_0001_1_15_H_._HHH_b1_08271_0001_0000700021_0000001_0_af2pred_0001_af2pred (protein)
chain: SSSSDREEEVQQLAILVVRLKEEGNPEEAREALEEAIELARELGDEERAAFLEVALIAIEQSSSS
B10: il2ra_site2_3nfp_normal_mot_HHH_b1_03516_af2_000000045_0001_38_52_H_._HHH_b1_06009_0001_0000400028_0000001_0 (protein)
chain: SSSSHREDLIRALLILAKRLVEELEDPEERRELERLIEELEREGDPHIAIRLAELLNEINSSSSS
B11: il2ra_site1_2b5i_sap_7_mot_HHH_b1_06833_000000178_0001_1_19_H_._48aadc431a6b245fcc562110268e3d14_0001_0001_0000300016_0000001_0_0001 (protein)
chain: SSSDSEETRFAVRVVWRLRWKYNLSDEDSHYLNEVAVRLLDEGYSEEEIEEILEEEAKKLSSSSS
B12: il2ra_site2_2erj_sap_21_mot_HHH_eva_0049_000000026_0001_1_19_H_._c78f7739fa167d31fea4525f494fb333_0001_0001_0000300034_0000001_0_0001 (protein)
chain: SSSSDEEEEARELAEELERALEEGDEELFRRLAWELLRFAWEYNDELAQRLLSKLFRKKGSSSSS
B13: il2ra_site2_2erj_normal_mot_HHH_eva_0077_000000062_0001_1_20_H_._7893fd715048dbce5e23317e54f1e302_0001_0001_0000500027_0000001_0_af2pred_0001_af2pred (protein)
chain: DEEEALREVAEILGVPPEEVKELVEEAKRLFGDPHAVERFLAARLRTAGVPPEEAERLAELLLRG
B14: il2ra_site1_3nfp_normal_mot_HHH_b1_08723_000000044_0001_1_15_H_._HHH_b1_08624_0001_0000200017_0000001_0 (protein)
chain: SSSSDLHERVEKLFRELFELAQRNDEEEVERVAEELEKLLEQNNNESSLRSVRNALKLLKSSSSS
B15: il2ra_site2_3nfp_sap_29_mot_HHH_b2_05838_af2_000000091_0001_1_20_H_._HHH_b1_03228_0001_0000300014_0000001_0_0001_af2pred_0001_af2pred (protein)
chain: SSSSSSEEEEIRELLERVEQIDDPFEAFAALNRAFELVDRLNNEELRELVRRLARELNEKSSSSS
B16: il2ra_site2_3nfp_sap_8_mot_968ffe68aa11d68c04d2634bf871f227_0001_1_af2_000000211_0001_1_14_H_._ems_3hM_1371_0001_0000200007_0000001_0_0001 (protein)
chain: SSSSSSEEVEKLLEQVKELIEEGNPEEARRVLRRASQLAWELNDAELFFRVAELLFEIHQSSSSS
B17: il2ra_site1_2b5i_normal_mot_f5ff40796168375b462bec8614a1db4a_0001_1_000000138_0001_53_65_H_._HHH_b1_04161_0001_0000400021_0000001_0_af2pred_dldesign_0_af2pred (protein)
chain: SSSSSLRELVEEIIAEVKRLVAEGKLEEARKLAILALRLARKAEDPELVARVEALLETLESSSSS
B18: il2ra_site1_3nfp_normal_mot_HHH_b1_01255_000000106_0001_44_57_H_._b78019874f59408b4808c960a672f6cd_0001_0001_0000100007_0000001_0_af2pred_0001_af2pred_swapped (protein)
chain: SAEEVLLRIVLERPDNPQARAALKILEEAAEKKGDPELKEILEEIKKLIEEGNPEEAQKLLEELR
B19: il2ra_site1_2b5i_sap_9_mot_HHH_b1_08157_af2_000000055_0001_42_55_H_._HHH_b1_02530_af2_0001_0000400057_0000001_0_0001_af2pred_dldesign_0_af2pred (protein)
chain: SSSSDEKYDEIDRLFNEALELKRAGKKEEAKEVLEKAIELAKELNDEKILAELEYLLKKLESSSS

Some of the results follow.

The test deals with il2ra, P01589. The test can be described thus: yeast display titration.
For B1, the “apparent Kd” value is “inactive: no binding seen”.
With B2, the “apparent Kd” value is “inactive: no binding seen”.
The entry for B3 is “inactive: no binding seen”; for B4 it is “inactive: no binding seen”; for B5 it is “inactive: no binding seen”.
The result for B6 reads “inactive: no binding seen”.
The result for B7 reads “inactive: no binding seen”.
On to B8, for which the “apparent Kd” value is “inactive: no binding seen”.
B9: the “apparent Kd” value is “inactive: no binding seen”.
The result for B10 reads “inactive: no binding seen”; that for B11, “inactive: no binding seen”; that for B12, “inactive: no binding seen”.
The entry for B13 is “inactive: no binding seen”; for B14 it is “inactive: no binding seen”.
For the molecule B15, the “apparent Kd” value was “inactive: no binding seen”.
The result for B16 reads “inactive: no binding seen”; that for B17, “inactive: no binding seen”; that for B18, “inactive: no binding seen”.
B19: the “apparent Kd” value was “inactive: no binding seen”.
